Measurements reported in PubChem BioAssay AID1224826 (NIAID, 2016).

- Aim: 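Regulators of Tlr4 signalling leading to Tnf-alpha expression in macrophages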 (primary screen)
- Cells: RAW264.7 G9 macrophages from mouse bearing reporters for p65 (GFP) and the Tnf promoter (mCherry)
- Knock-down reagent: siRNA pool against mouse genes, 100 nM
- Time to read-out: 16 h of LPS stimulation, after 2 days of siRNA transfection
- Treatment: bacterial lipopolysaccharide (Salmonella minnesota R595), 10 ng/ml
- Read-out: 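Nuclear mCherry signal of the Tnf promoter reporter measured by imaging after background removal, scaled to each plate median and turned into robust z-scores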
- Scale: Tnf reporter robust z-score: higher = stronger Tnf promoter reporter signal after LPS
- Call rule: 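Called active when robust z-score is at most -1.3, matching the median of the Tlr4 knock-down control, or over 3; control wells and wells with under 50 cells never active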
- Calls: active = Tnf reporter clearly lowered or raised; inactive = no clear change in Tnf reporter
In all, the deposit lists about 17,000 reagents; shown is a part drawn at random. About 1,110 of all reagents (6.6%) were called active. 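Active means lowered or raised reporter signal; replicate intensities are raw and not normalised per plate.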 A number with no mark means an inactive call. Not all columns of the deposit are shown. Reagent sequences are not shown.

Cyp2c70 (cytochrome P450, family 2, subfamily c, polypeptide 70): Tnf reporter robust z-score = -1.34 (active); fewer than 50 cells in well = enough cells in well
Csnk1e (casein kinase 1, epsilon): Tnf reporter robust z-score = -0.76; fewer than 50 cells in well = enough cells in well
Bcl2l11 (BCL2 like 11): Tnf reporter robust z-score = 0.51; fewer than 50 cells in well = enough cells in well
Or8k23 (olfactory receptor family 8 subfamily K member 23): Tnf reporter robust z-score = 0.14; fewer than 50 cells in well = enough cells in well
Mtfp1 (mitochondrial fission process 1): Tnf reporter robust z-score = -0.74; fewer than 50 cells in well = enough cells in well
Pde4a (phosphodiesterase 4A, cAMP specific): Tnf reporter robust z-score = 0.06; fewer than 50 cells in well = enough cells in well
Erdr1x (erythroid differentiation regulator 1 x): Tnf reporter robust z-score = 1.26; fewer than 50 cells in well = enough cells in well
Zfa-ps (zinc finger protein, autosomal, pseudogene): Tnf reporter robust z-score = 0.72; fewer than 50 cells in well = enough cells in well
Mettl1 (methyltransferase 1, tRNA methylguanosine): Tnf reporter robust z-score = 1.06; fewer than 50 cells in well = enough cells in well
Pias1 (protein inhibitor of activated STAT 1): Tnf reporter robust z-score = -0.42; fewer than 50 cells in well = enough cells in well
Zfp532 (zinc finger protein 532): Tnf reporter robust z-score = 0.18; fewer than 50 cells in well = enough cells in well
Gmfg (glia maturation factor, gamma): fewer than 50 cells in well = fewer than 50 cells per well; well left out of calls
Gpr45 (G protein-coupled receptor 45): Tnf reporter robust z-score = 0.24; fewer than 50 cells in well = enough cells in well
Adamts15 (ADAM metallopeptidase with thrombospondin type 1 motif 15): Tnf reporter robust z-score = -0.89; fewer than 50 cells in well = enough cells in well
Krtap19-5 (keratin associated protein 19-5): Tnf reporter robust z-score = -1.07; fewer than 50 cells in well = enough cells in well
Decr1 (2,4-dienoyl CoA reductase 1, mitochondrial): Tnf reporter robust z-score = 0.05; fewer than 50 cells in well = enough cells in well
Or4c103 (olfactory receptor family 4 subfamily C member 103): Tnf reporter robust z-score = -0.02; fewer than 50 cells in well = enough cells in well
Pcdhb14 (protocadherin beta 14): Tnf reporter robust z-score = 1.72; fewer than 50 cells in well = enough cells in well
Sfxn4 (sideroflexin 4): fewer than 50 cells in well = fewer than 50 cells per well; well left out of calls
Zfyve9 (zinc finger, FYVE domain containing 9): Tnf reporter robust z-score = 0.35; fewer than 50 cells in well = enough cells in well
Ric8a (RIC8 guanine nucleotide exchange factor A): Tnf reporter robust z-score = 0.41; fewer than 50 cells in well = enough cells in well

In a second layout: 3 of the entries above.
{"Target gene":"Or4c103 (olfactory receptor family 4 subfamily C member 103)","Tnf reporter robust z-score":-0.02,"fewer than 50 cells in well":"enough cells in well"}
{"Target gene":"Pcdhb14 (protocadherin beta 14)","Tnf reporter robust z-score":1.72,"fewer than 50 cells in well":"enough cells in well"}
{"Target gene":"Sfxn4 (sideroflexin 4)","fewer than 50 cells in well":"fewer than 50 cells per well; well left out of calls"}
